PubChem BioAssay AID504808, Drosophila RNAi Screening Center, 2011
In all, the deposit lists about 21,000 reagents; below is an unselected part of those with a known target gene and a result. Of all reagents, 18 (0.084%) are marked active. 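Raw counts without plate normalisation, one of two replicates; the ratio scores behind the calls were not deposited.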 A plus sign joins genes that one reagent is predicted to hit. Not stated in the record: the amount of reagent, the time to read-out.

Purpose: 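Fly genes required to hold E2F transcription in check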 (primary screen)
System: Drosophila S2 cells
Knock-down reagent: long dsRNA against Drosophila genes
Detection: 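Firefly luciferase driven by E2F sites, normalised to Renilla luciferase on the same minimal promoter, measured by plate reader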
Reading the numbers: E2F firefly: higher = more E2F reporter activity; Renilla normaliser: higher = more normaliser reporter signal
Call rule: 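a knock-down counted as active when the firefly/Renilla E2F signal rose above 50%, a threshold chosen arbitrarily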

| predicted target | amplicon | E2F firefly, rep 1 | Renilla normaliser, rep 1 | outcome |
| --- | --- | --- | --- | --- |
| Trm7-34 | DRSC16171 | 1.37e5 | 6813 | inactive |
| CG42726 + CG42727 | DRSC14485 | 79165 | 4394 | inactive |
| Vajk4 | DRSC06589 | 79474 | 3255 | inactive |
| Vajk4 | DRSC07003 | 1.51e5 | 5471 | inactive |
| FoxK | DRSC09859 | 61157 | 3583 | inactive |
| MED24 | DRSC10944 | 94928 | 4984 | inactive |
| elav | DRSC18772 | 1930 | 844 | inactive |
| sens-2 | DRSC02136 | 1.44e5 | 5322 | inactive |
| sens-2 | DRSC02613 | 1.45e5 | 5363 | inactive |
| Synj | DRSC04526 | 77085 | 3730 | inactive |
| CG32507 | DRSC20421 | 78304 | 2457 | inactive |
| ZnT33D | DRSC02591 | 96927 | 4030 | inactive |
| Elp5 | DRSC08547 | 92962 | 4239 | inactive |
| CG32240 | DRSC08093 | 1.29e5 | 4000 | inactive |
| CG3955 | DRSC06859 | 108 | 32 | inactive |
| Cys | DRSC16637 | 1.14e5 | 6247 | inactive |
| ms(2)35Ci | DRSC01460 | 1.40e5 | 5474 | inactive |
| CG3546 | DRSC18308 | 82068 | 5145 | inactive |
| CG13073 | DRSC09956 | 1.52e5 | 8661 | inactive |
| CG8778 | DRSC07264 | 97463 | 3969 | inactive |
| Arc2 | DRSC06436 | 97018 | 4322 | inactive |
| Lim3 | DRSC02475 | 1.02e5 | 4413 | inactive |
| Lim3 | DRSC03363 | 1.04e5 | 5402 | inactive |
| CG13036 (retired record) | DRSC09916 | 1.78e5 | 7439 | inactive |
| CG6431 | DRSC02956 | 1.61e5 | 5232 | inactive |
| Chd64 | DRSC08649 | 69745 | 4321 | inactive |
| e(y)3 | DRSC19450 | 1.55e5 | 7237 | inactive |
| CG10505 | DRSC04075 | 1.09e5 | 3828 | inactive |
| svp | DRSC12899 | 85228 | 2602 | inactive |
| svp | DRSC15311 | 69001 | 5755 | inactive |
| svp | DRSC17075 | 1.42e5 | 7538 | inactive |
| CG12420 | DRSC14514 | 1.45e5 | 6618 | inactive |
| Sf3b1 | DRSC00535 | 92821 | 150 | inactive |
| CG16815 | DRSC02521 | 99744 | 4231 | inactive |
| CG15705 | DRSC06576 | 1.54e5 | 4394 | inactive |
| tay | DRSC20142 | 7862 | 844 | inactive |
| CG12691 | DRSC17880 | 1.10e5 | 5127 | inactive |
| Torsin | DRSC18570 | 43947 | 3118 | inactive |
| Pi4KIIalpha | DRSC12322 | 71516 | 3489 | inactive |
| Pi4KIIalpha | DRSC12323 | 1.23e5 | 5150 | inactive |
| CG8726 | DRSC07250 | 2730 | 227 | inactive |
| ssp2 | DRSC11052 | 1.07e5 | 3755 | inactive |
| CG6834 | DRSC16125 | 1.42e5 | 7120 | inactive |
| prd | DRSC03597 | 86155 | 3972 | inactive |
| ohgt | DRSC15521 | 1.45e5 | 6715 | inactive |
| sax | DRSC07675 | 3020 | 211 | inactive |
| cindr | DRSC14126 | 1919 | 864 | inactive |
| cindr | DRSC14298 | 1.00e5 | 5878 | inactive |
| ATP7 | DRSC19819 | 1.35e5 | 5658 | inactive |
| CG5731 | DRSC02883 | 1.52e5 | 4940 | inactive |
| Gli | DRSC03332 | 1.15e5 | 4284 | inactive |
| CG33306 | DRSC01899 | 80791 | 3052 | inactive |
| Corin | DRSC06818 | 1.46e5 | 5097 | inactive |
| Vago | DRSC19833 | 1.32e5 | 7305 | inactive |
| sxe2 | DRSC15692 | 80401 | 4132 | inactive |
| CrebB | DRSC20232 | 1.28e5 | 5309 | inactive |
| CR42545 | DRSC03709 | 98118 | 4218 | inactive |
| CG10646 | DRSC09764 | 52675 | 3758 | inactive |
| Shawn + Tyler | DRSC19564 | 1.58e5 | 5706 | inactive |
| Shawn + Tyler | DRSC19565 | 1.43e5 | 5140 | inactive |
| Ppa | DRSC04598 | 99260 | 4106 | inactive |
| Golgin84 | DRSC15269 | 1.22e5 | 6815 | inactive |
| CG16854 | DRSC02536 | 1.40e5 | 5263 | inactive |
| Tusp | DRSC15838 | 1.00e5 | 7238 | inactive |
| CG9003 | DRSC07317 | 98244 | 4563 | inactive |
| nod | DRSC18900 | 87581 | 2672 | inactive |
| nod | DRSC20356 | 7944 | 844 | inactive |
| snRNA:U1:95Cc + snRNA:U1:95Cb | DRSC13641 | 86424 | 3093 | inactive |
| nht | DRSC01976 | 1.04e5 | 4257 | inactive |
| CG7335 | DRSC10816 | 1.30e5 | 6913 | inactive |
| HmgZ | DRSC03888 | 1.01e5 | 3785 | inactive |
| HmgZ | DRSC04620 | 1.01e5 | 4180 | inactive |
| GluRS-m | DRSC10431 | 1.68e5 | 6914 | inactive |
| CG30385 | DRSC06031 | 1.54e5 | 5331 | inactive |
| CG16888 | DRSC02541 | 96919 | 4380 | inactive |
| ND-B12 | DRSC04060 | 1.03e5 | 4062 | inactive |
| wds | DRSC18852 | 1.90e5 | 7922 | inactive |
| Ndf | DRSC02775 | 70034 | 3333 | inactive |
| CG34057 | DRSC08375 | 97519 | 4633 | inactive |
| Caf1-105 | DRSC06209 | 1.39e5 | 4999 | inactive |
| CG2147 | DRSC18211 | 7564 | 828 | inactive |
| Rab7 | DRSC16810 | 76926 | 4008 | inactive |
| Tsp42Ee | DRSC05947 | 1.50e5 | 5117 | inactive |
| Rab9Db + Rab9D + Rab9Fa + 1 more | DRSC17662 | 84497 | 2406 | inactive |

Records above whose gene name begins with N or n (5):
| predicted target | amplicon | E2F firefly, rep 1 | Renilla normaliser, rep 1 | outcome |
| --- | --- | --- | --- | --- |
| nod | DRSC18900 | 87581 | 2672 | inactive |
| nod | DRSC20356 | 7944 | 844 | inactive |
| nht | DRSC01976 | 1.04e5 | 4257 | inactive |
| ND-B12 | DRSC04060 | 1.03e5 | 4062 | inactive |
| Ndf | DRSC02775 | 70034 | 3333 | inactive |
